Test results reported in the supplement of paper PMC10849652.
This is one part of the list.

Chains of the proteins cited; added tags and fusions are not shown. Lines headed by an entry give the natural chain unless they say otherwise; changes in a name come on top.
UniProt Q9Y4Z0: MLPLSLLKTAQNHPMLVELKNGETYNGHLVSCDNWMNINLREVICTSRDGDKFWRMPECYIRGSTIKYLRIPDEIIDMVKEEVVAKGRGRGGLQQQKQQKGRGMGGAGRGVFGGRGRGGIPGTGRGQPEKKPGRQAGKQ
UniProt Q86X29: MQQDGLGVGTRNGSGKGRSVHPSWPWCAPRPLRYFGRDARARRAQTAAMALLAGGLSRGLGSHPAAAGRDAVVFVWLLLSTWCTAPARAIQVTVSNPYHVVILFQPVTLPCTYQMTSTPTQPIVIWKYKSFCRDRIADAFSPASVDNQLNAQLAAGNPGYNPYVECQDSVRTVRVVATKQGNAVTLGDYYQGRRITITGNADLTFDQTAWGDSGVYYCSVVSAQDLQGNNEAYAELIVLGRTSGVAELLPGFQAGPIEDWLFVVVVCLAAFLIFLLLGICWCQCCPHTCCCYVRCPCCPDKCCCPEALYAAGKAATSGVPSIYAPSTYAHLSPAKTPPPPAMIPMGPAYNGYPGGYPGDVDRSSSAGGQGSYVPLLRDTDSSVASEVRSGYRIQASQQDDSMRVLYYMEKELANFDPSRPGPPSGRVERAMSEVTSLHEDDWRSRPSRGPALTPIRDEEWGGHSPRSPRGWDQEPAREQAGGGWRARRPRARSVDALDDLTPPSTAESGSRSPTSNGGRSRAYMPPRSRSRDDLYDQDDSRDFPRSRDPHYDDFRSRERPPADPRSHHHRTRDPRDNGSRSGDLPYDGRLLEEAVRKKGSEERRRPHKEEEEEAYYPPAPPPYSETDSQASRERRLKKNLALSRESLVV
UniProt P12980: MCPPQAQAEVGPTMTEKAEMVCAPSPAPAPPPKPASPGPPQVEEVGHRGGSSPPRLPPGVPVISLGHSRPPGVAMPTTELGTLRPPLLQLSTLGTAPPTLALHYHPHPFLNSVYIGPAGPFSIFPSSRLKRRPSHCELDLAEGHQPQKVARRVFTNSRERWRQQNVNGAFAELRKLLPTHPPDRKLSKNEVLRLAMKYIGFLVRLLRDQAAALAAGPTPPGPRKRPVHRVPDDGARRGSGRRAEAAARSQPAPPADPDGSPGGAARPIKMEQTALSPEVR
UniProt Q9BQ69: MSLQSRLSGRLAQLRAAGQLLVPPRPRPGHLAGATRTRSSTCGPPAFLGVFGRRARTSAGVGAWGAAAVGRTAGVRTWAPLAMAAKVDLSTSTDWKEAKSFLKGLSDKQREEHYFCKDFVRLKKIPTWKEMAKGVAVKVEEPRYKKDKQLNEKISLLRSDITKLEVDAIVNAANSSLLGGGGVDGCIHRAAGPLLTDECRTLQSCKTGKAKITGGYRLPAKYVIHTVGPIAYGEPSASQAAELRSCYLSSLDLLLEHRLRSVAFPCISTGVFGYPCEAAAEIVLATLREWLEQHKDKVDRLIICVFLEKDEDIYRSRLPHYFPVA
UniProt P55145: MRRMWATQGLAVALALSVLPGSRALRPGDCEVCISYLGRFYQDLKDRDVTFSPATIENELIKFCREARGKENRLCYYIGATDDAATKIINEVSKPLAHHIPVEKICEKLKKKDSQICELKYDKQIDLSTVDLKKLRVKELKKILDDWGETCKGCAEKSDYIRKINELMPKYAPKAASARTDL
UniProt P27448: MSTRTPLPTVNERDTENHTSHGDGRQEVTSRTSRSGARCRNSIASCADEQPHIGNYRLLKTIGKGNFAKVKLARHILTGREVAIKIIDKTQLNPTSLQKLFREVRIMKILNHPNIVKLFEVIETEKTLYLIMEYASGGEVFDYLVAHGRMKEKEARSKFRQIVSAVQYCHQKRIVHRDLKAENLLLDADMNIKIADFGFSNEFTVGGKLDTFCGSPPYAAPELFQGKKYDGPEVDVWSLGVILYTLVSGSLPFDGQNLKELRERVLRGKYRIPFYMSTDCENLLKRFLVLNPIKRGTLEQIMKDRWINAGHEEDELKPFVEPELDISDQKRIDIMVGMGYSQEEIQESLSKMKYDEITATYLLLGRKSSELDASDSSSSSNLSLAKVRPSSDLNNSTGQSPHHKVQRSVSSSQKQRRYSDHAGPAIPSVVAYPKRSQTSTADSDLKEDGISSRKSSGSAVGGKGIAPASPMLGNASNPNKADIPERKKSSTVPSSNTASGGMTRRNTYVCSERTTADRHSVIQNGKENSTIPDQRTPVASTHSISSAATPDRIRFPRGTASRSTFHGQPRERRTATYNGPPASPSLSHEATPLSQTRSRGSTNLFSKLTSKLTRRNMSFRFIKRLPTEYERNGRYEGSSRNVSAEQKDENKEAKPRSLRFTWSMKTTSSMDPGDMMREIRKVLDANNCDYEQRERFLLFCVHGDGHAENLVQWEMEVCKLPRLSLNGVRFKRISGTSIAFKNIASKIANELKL
UniProt O95777: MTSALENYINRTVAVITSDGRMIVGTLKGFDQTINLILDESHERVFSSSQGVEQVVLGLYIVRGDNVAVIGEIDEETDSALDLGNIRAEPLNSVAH
UniProt Q9UFC0: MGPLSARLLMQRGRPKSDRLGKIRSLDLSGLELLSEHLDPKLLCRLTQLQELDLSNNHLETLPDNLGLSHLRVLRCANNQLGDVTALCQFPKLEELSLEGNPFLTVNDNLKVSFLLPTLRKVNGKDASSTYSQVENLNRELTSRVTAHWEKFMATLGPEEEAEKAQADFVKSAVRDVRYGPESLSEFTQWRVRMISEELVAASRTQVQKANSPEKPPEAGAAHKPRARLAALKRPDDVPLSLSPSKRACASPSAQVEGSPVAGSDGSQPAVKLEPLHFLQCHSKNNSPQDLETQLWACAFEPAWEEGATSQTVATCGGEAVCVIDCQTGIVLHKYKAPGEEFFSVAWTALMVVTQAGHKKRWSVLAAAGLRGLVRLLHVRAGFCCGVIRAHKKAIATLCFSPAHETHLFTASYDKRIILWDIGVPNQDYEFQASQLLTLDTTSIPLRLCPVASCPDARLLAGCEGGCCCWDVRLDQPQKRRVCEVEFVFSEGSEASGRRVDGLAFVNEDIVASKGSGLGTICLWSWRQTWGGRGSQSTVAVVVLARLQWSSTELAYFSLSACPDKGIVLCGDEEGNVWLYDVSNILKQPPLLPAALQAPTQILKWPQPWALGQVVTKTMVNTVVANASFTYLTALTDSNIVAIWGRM
UniProt Q14244: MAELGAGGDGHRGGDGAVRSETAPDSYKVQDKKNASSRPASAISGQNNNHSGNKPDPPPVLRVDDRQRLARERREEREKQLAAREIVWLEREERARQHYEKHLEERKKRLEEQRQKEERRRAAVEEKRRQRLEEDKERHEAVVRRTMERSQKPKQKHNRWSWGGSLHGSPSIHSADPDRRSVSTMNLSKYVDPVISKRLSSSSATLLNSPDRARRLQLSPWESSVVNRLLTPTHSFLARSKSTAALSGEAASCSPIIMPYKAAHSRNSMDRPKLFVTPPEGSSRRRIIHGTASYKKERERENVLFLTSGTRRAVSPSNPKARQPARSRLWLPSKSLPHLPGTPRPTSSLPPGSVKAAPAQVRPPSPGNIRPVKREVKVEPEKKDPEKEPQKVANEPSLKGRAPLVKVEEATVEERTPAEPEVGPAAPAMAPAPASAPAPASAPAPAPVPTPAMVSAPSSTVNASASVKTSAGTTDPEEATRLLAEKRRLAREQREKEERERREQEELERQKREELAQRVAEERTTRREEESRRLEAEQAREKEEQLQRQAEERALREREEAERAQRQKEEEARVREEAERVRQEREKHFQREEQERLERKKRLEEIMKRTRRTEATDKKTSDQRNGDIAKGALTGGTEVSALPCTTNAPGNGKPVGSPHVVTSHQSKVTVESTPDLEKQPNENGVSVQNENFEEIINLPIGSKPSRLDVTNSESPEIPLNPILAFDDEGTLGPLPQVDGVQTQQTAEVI
UniProt Q15691: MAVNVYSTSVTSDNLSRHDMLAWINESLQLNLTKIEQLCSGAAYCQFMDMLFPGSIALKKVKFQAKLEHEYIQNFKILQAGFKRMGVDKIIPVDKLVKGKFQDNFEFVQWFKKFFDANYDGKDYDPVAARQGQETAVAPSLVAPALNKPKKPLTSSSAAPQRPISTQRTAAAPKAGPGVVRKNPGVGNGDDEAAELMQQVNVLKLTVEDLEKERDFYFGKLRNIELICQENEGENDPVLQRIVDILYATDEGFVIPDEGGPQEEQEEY
UniProt Q16659, whole entry, looked up: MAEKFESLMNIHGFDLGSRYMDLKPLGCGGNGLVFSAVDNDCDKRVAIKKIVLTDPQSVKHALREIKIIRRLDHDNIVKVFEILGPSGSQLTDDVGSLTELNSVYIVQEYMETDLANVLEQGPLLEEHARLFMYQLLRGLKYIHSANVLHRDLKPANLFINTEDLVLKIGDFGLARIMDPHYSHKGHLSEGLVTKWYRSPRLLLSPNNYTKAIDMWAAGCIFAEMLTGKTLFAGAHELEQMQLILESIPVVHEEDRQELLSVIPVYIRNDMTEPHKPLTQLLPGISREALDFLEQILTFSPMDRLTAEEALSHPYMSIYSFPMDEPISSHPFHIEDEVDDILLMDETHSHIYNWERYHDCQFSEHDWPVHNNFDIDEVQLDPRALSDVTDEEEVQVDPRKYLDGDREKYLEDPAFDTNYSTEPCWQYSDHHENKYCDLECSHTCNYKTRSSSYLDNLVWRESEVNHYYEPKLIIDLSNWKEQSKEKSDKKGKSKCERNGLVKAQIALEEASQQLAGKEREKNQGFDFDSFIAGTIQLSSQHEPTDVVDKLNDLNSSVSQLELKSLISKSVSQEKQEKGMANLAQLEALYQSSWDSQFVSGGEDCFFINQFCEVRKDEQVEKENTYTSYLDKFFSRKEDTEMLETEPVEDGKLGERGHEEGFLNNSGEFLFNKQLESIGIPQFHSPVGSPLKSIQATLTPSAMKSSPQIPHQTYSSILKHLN
UniProt Q8WZA0: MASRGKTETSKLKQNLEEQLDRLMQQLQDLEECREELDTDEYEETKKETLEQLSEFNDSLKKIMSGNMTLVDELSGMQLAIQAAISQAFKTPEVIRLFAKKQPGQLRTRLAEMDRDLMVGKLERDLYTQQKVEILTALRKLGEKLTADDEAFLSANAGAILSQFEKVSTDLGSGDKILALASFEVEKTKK
UniProt Q9Y333: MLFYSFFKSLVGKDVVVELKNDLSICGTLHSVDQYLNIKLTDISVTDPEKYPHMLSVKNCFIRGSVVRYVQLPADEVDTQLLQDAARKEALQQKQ
UniProt P43361: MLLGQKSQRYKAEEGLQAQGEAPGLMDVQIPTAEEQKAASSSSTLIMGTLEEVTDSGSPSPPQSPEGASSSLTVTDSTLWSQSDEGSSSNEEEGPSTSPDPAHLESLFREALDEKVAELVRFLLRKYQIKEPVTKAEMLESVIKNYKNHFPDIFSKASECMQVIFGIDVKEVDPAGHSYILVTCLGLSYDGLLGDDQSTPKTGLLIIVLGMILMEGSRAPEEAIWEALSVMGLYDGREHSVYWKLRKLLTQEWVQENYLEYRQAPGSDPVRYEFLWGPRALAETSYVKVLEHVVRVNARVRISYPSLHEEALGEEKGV
UniProt Q16706: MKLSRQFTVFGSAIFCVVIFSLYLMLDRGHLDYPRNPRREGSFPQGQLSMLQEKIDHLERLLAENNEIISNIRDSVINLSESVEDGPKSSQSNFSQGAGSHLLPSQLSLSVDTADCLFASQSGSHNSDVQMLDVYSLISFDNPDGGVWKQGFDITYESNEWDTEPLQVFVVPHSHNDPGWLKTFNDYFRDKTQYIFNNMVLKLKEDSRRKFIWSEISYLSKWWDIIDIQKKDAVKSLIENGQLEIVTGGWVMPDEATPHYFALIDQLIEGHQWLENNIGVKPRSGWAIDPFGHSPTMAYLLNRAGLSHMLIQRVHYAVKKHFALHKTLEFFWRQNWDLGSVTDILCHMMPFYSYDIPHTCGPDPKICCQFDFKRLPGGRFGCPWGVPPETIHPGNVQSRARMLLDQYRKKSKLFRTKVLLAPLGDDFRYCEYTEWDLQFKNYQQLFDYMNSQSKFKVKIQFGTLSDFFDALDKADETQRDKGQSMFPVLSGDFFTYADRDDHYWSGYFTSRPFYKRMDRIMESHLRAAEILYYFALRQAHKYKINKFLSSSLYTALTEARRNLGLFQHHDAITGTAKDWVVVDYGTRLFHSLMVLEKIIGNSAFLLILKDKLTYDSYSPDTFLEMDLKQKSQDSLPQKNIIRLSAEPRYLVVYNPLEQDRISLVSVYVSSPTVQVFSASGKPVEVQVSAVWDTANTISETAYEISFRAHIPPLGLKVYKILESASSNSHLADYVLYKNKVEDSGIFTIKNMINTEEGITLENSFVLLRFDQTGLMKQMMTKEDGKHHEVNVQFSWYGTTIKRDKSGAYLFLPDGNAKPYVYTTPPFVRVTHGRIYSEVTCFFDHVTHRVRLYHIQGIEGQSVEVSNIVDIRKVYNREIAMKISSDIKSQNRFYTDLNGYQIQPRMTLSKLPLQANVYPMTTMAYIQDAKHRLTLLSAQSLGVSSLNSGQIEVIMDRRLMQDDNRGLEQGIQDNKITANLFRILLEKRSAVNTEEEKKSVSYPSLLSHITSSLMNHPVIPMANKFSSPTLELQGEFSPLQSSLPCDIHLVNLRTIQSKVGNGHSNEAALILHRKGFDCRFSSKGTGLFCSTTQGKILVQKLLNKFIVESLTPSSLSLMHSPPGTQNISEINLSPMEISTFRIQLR

Assays:
Assay in all cases: log2 fold change, soluble protein after heating vs DMSO (PISA); higher = thermal stabilisation; K562 cells, 10 uM, 30 min; active = over 0.2 and 3.5 SD of the protein, either way, in both replicates (recomputed)
[1] = compound: C1=CC=C(C=C1)[C@H](COC2=CC3=C(C=C2)NC(=O)N3)NC(=O)C4=CC=CN(C4=O)CC5=CC(=C(C=C5)F)F
Summary of the method: (§1)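 Thermal stability values are relative to control samples and come from duplicates. They are expressed as log2 fold changes. For measurement, K562 cells (2×10^6 cells/mL) received 10 μM compound for 30 min, and aliquots were heated for 3 min over 48°C-58°C, pooled, and extracted at 4°C in PBS with 0.5% NP-40. Soluble protein, the supernatant after 21,000xg for 90 min, was quantified by TMTpro 16plex LC-MS/MS with equalised channel sums.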

[2] = compound: CC1=C(SC2=C1C(=N[C@H](C3=NN=C(N32)C)CC(=O)N)C4=CC=C(C=C4)Cl)C
Summary of the method: as §1

[3] = compound: CC1=C2C(=CC=C1)N=C(N(C2=O)C3=CC=CC=C3C)CN4C=NC5=C(N=CN=C54)N
Summary of the method: as §1

[4] = compound: Cc1sc2c(c1C)C(c1ccc(Cl)cc1)=N[C@@H](CC(=O)OC(C)(C)C)c1nnc(C)n1-2
Summary of the method: as §1

[5] = compound: c1ccc([C@@H]2C[C@H]2NC2CCNCC2)cc1
Summary of the method: as §1

Measured: log2 fold change

MAP3K7 (UniProt O43318)
inactive: [1] -0.085 | [2] 0.005 | [3] 0.11 | [4] 0.061 | [5] 0.023

MAK16 (UniProt Q9BXY0)
inactive: [1] 0.017 | [2] -0.103 | [3] -0.21 | [4] 0.049 | [5] 0

LSM4 (UniProt Q9Y4Z0)
inactive: [1] 0.023 | [2] -0.023 | [3] -0.053 | [4] 0.025 | [5] 0.01

LSR (UniProt Q86X29)
inactive: [1] -0.016 | [2] 0.033 | [3] 0.006 | [4] -0.034 | [5] 0.015

LUZP1 (UniProt Q86V48)
inactive: [1] -0.053 | [2] -0.141 | [3] -0.171 | [4] -0.217 | [5] -0.201

LYL1 (UniProt P12980)
inactive: [1] 0.066 | [2] 0.011 | [3] -0.082 | [4] 0.047 | [5] -0.238

MAP2K1 (UniProt Q02750)
inactive: [1] -0.01 | [2] 0.033 | [3] 0.099 | [4] -0.015 | [5] 0

MACROD1 (UniProt Q9BQ69)
inactive: [1] -0.111 | [2] 0.086 | [3] 0.315 | [4] -0.022 | [5] -0.039

MANF (UniProt P55145)
inactive: [1] -0.004 | [2] 0 | [3] -0.039 | [4] -0.003 | [5] -0.003

MARK3 (UniProt P27448)
inactive: [1] -0.042 | [2] 0.039 | [3] 0.104 | [4] 0.121 | [5] 0.004

MAPKAPK5 (UniProt Q8IW41)
inactive: [1] 0.042 | [2] 0.001 | [3] 0.015 | [4] -0.069 | [5] -0.009

LSM8 (UniProt O95777)
inactive: [1] 0.007 | [2] 0.044 | [3] 0.01 | [4] -0.023 | [5] 0.008

MAP4 (UniProt E7EVA0)
inactive: [1] -0.009 | [2] -0.15 | [3] -0.095 | [4] 0.096 | [5] 0.005

LTO1 (UniProt Q8WV07)
inactive: [1] 0.054 | [2] -0.02 | [3] 0.142 | [4] -0.062 | [5] 0.03

Fetched one by one from above (2):
MANF (UniProt P55145)
inactive: [1] -0.004 | [2] 0 | [3] -0.039 | [4] -0.003 | [5] -0.003

MAK16 (UniProt Q9BXY0)
inactive: [1] 0.017 | [2] -0.103 | [3] -0.21 | [4] 0.049 | [5] 0

(list continues)

LRWD1 (UniProt Q9UFC0)
inactive: [1] -0.053 | [2] 0.079 | [3] 0.2 | [4] -0.001 | [5] -0.11

MAP7 isoform 7 (UniProt Q14244)
inactive: [1] 0.131 | [2] -0.19 | [3] -0.202 | [4] 0.114 | [5] -0.007

MAPRE1 (UniProt Q15691)
inactive: [1] -0.017 | [2] 0.038 | [3] 0.087 | [4] -0.031 | [5] -0.027

MAPK6 (UniProt Q16659)
inactive: [1] 0.059 | [2] -0.033 | [3] 0.089 | [4] -0.084 | [5] 0.03

MAP4K4 isoform 3 (UniProt O95819)
inactive: [1] 0.009 | [2] 0.032 | [3] 0.044 | [4] 0.04
active: [5] 0.264

LZIC isoform 2 (UniProt Q8WZA0)
inactive: [1] 0.041 | [2] 0.047 | [3] 0.007 | [4] 0.002 | [5] 0.001

LSM2 (UniProt Q9Y333)
inactive: [1] 0.011 | [2] 0.034 | [3] -0.026 | [4] -0.015 | [5] 0.006

MAGEA8 (UniProt P43361)
inactive: [1] 0.075 | [2] -0.035 | [3] 0.02 | [4] -0.119 | [5] 0.077

MARK2 (UniProt E9PC69)
inactive: [1] -0.029 | [2] 0.038 | [3] 0.174 | [4] 0.126 | [5] -0.052

MAN2A1 (UniProt Q16706)
inactive: [1] 0.046 | [2] -0.019 | [3] 0.059 | [4] -0.001 | [5] 0.028
